Reference: patent US9422339B2 (Aurigene Discovery Technologies Limited, priority 2012, dated 2016)

Assay: general procedure: Fmoc solid-phase peptide synthesis; Rink Amide MBHA-Amide resin (100-200 mesh, 0.66 mmol/g); 2-chlorotrityl chloride resin (1.12 mmol/g); DIC/HOBT
Conditions: whole synthesis

Which results are given for “PEPTIDE1{S.E.T.S.K.S.F.[am]}$PEPTIDE1,PEPTIDE1,2:R3-5:R3$$$V2.0”?
crude mass: 760 mg; final HPLC purity (HPLC, scale of the general procedure 0.5-1 g resin): 97.1%; crude yield (scale of the general procedure 0.5-1 g resin): 75%

Strings that start with PEPTIDE1 are HELM notation: dots part the residues, brackets hold end groups and non-standard residues.
